Results are given in words; binding and its absence hold for the method and conditions named. Binding seen in cells or lysates may run through a third protein. Some results given as binding are weak or reduced against the parent protein; the word gives no strength. Sequences can lack the tags named with a protein.
Columns and labels:
MYC-TMEM18-YC = target: T1, MYC-TMEM18-YC (UniProt Q3TUD9); assay: split reporter
T1 sequence: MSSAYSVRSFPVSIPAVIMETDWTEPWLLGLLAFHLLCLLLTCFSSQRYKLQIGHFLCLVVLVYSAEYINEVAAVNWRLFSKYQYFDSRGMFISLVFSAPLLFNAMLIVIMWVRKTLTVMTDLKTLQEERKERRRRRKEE

FLAG-tagged TMEM18 = FLAG-tagged TMEM18 (UniProt Q3TUD9); assay: co-IP
YN-FLAG-NDC1 = target: T2, YN-FLAG-NDC1 (UniProt Q8VCB1); assay: split reporter
T2 sequence: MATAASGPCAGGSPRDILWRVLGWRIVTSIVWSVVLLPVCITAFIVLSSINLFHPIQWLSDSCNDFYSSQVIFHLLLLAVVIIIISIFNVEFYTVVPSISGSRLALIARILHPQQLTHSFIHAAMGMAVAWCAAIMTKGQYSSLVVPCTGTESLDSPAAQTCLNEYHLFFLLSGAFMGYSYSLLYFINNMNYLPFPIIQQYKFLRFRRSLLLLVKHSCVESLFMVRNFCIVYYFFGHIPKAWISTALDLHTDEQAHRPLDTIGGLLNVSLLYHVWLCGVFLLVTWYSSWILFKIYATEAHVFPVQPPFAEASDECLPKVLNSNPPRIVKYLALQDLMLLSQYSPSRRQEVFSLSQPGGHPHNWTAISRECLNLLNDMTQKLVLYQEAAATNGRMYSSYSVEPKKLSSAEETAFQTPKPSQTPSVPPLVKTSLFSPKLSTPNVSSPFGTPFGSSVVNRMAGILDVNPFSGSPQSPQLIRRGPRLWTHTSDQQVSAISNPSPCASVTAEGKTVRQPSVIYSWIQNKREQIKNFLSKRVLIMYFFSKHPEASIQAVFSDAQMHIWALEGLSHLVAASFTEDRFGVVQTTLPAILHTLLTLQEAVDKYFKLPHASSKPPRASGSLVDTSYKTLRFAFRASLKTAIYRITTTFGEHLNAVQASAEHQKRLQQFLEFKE

B1: YN-FLAG-NUP35 (protein, UniProt Q8R4R6 1-325)
chain: MAAFAVDPQAPTLGSEPMMLGSPTSPKTGANAQFLPGFLMGDLPAPVTPQPRSISGPSVGVMEMRSPLLAGGSPPQPVVPAHKDKSGAPPVRSIYDDISSPGLGSTPLTSRRQANISLLQSPLVGATTPVPGQSMFSPANIGQPRKTTLSPAQLDPFYTQGDSLTSEDHLDDTWVTVFGFPQASASYILLQFAQYGNILKHVMSNTGNWMHIRYQSKLQARKALSKDGRIFGESIMIGVKPCIDKNVMENSDRGVLSSPSLAFTTPIRTLGTPTQSGSTPRVSTMRPLATAYKASTSDYQVISDRQTPKKDESLVSRAMEYMFGW
In the case of B1, the binding (MYC-TMEM18-YC) is reported as “no binding”.

B2: YN-FLAG-NDC1 (protein, UniProt Q8VCB1 1-673)
chain: MATAASGPCAGGSPRDILWRVLGWRIVTSIVWSVVLLPVCITAFIVLSSINLFHPIQWLSDSCNDFYSSQVIFHLLLLAVVIIIISIFNVEFYTVVPSISGSRLALIARILHPQQLTHSFIHAAMGMAVAWCAAIMTKGQYSSLVVPCTGTESLDSPAAQTCLNEYHLFFLLSGAFMGYSYSLLYFINNMNYLPFPIIQQYKFLRFRRSLLLLVKHSCVESLFMVRNFCIVYYFFGHIPKAWISTALDLHTDEQAHRPLDTIGGLLNVSLLYHVWLCGVFLLVTWYSSWILFKIYATEAHVFPVQPPFAEASDECLPKVLNSNPPRIVKYLALQDLMLLSQYSPSRRQEVFSLSQPGGHPHNWTAISRECLNLLNDMTQKLVLYQEAAATNGRMYSSYSVEPKKLSSAEETAFQTPKPSQTPSVPPLVKTSLFSPKLSTPNVSSPFGTPFGSSVVNRMAGILDVNPFSGSPQSPQLIRRGPRLWTHTSDQQVSAISNPSPCASVTAEGKTVRQPSVIYSWIQNKREQIKNFLSKRVLIMYFFSKHPEASIQAVFSDAQMHIWALEGLSHLVAASFTEDRFGVVQTTLPAILHTLLTLQEAVDKYFKLPHASSKPPRASGSLVDTSYKTLRFAFRASLKTAIYRITTTFGEHLNAVQASAEHQKRLQQFLEFKE
For B2, the binding (MYC-TMEM18-YC) was “binds”.

B3: GFP tagged NDC1 (protein, UniProt Q8VCB1 1-673)
chain: MATAASGPCAGGSPRDILWRVLGWRIVTSIVWSVVLLPVCITAFIVLSSINLFHPIQWLSDSCNDFYSSQVIFHLLLLAVVIIIISIFNVEFYTVVPSISGSRLALIARILHPQQLTHSFIHAAMGMAVAWCAAIMTKGQYSSLVVPCTGTESLDSPAAQTCLNEYHLFFLLSGAFMGYSYSLLYFINNMNYLPFPIIQQYKFLRFRRSLLLLVKHSCVESLFMVRNFCIVYYFFGHIPKAWISTALDLHTDEQAHRPLDTIGGLLNVSLLYHVWLCGVFLLVTWYSSWILFKIYATEAHVFPVQPPFAEASDECLPKVLNSNPPRIVKYLALQDLMLLSQYSPSRRQEVFSLSQPGGHPHNWTAISRECLNLLNDMTQKLVLYQEAAATNGRMYSSYSVEPKKLSSAEETAFQTPKPSQTPSVPPLVKTSLFSPKLSTPNVSSPFGTPFGSSVVNRMAGILDVNPFSGSPQSPQLIRRGPRLWTHTSDQQVSAISNPSPCASVTAEGKTVRQPSVIYSWIQNKREQIKNFLSKRVLIMYFFSKHPEASIQAVFSDAQMHIWALEGLSHLVAASFTEDRFGVVQTTLPAILHTLLTLQEAVDKYFKLPHASSKPPRASGSLVDTSYKTLRFAFRASLKTAIYRITTTFGEHLNAVQASAEHQKRLQQFLEFKE
With B3 the binding (FLAG-tagged TMEM18) was “binds”.

B4: YN-FLAG-AAAS (protein, UniProt P58742 1-546)
chain: MCSLGLFPPPPPRGQVTLYEHNNELVTGNSYESPPPDFRGQWINLPVLHLTKDPLKAPGRLDHGTRTAFIHHREQVWKRCINVWHDVGLFGVLNEIANSEEEVFEWVKTACSWALALCGRASSLHGSLFPHLSLRSEDLIAEFAQVTNWSSCCLRVFAWHPHTNKFAVALLDDSIRVYNANSTIVPSLKHRLQRNVAALAWKPLSASVLAVACQSCILIWTLDPTSLSTRPSSGCAQVLSHPGHTPVTSLAWAPNGGWLLSASPVDAVILVWDVSTETCVPLPWFRGGGVTNLLWSPDGSKVLATTPSAVFRVWEAQMWTCEAWPTLSGRCQTGCWSPDGNRLLFTVLGEALIYSLSFPERCGTGKGHVGGAKSATIVADLSETTIQTPDGEERLGGEAHSMVWDPSGERLAVLMKGNPQVQDGNPVILLFRTRNSPVFELLPCGIIQGEPGAQAQLITFHPSFNKGALLSVCWSTGRITHIPLYFVNAQFPRFSPVLGRAQEPPAGGGGSIHEVPLFTETSPTSAPWDPLPGQSSAQPHSPHSHL
For B4, the binding (MYC-TMEM18-YC) was “binds”.

B5: GFP tagged AAAS (protein, UniProt P58742 1-546)
chain: MCSLGLFPPPPPRGQVTLYEHNNELVTGNSYESPPPDFRGQWINLPVLHLTKDPLKAPGRLDHGTRTAFIHHREQVWKRCINVWHDVGLFGVLNEIANSEEEVFEWVKTACSWALALCGRASSLHGSLFPHLSLRSEDLIAEFAQVTNWSSCCLRVFAWHPHTNKFAVALLDDSIRVYNANSTIVPSLKHRLQRNVAALAWKPLSASVLAVACQSCILIWTLDPTSLSTRPSSGCAQVLSHPGHTPVTSLAWAPNGGWLLSASPVDAVILVWDVSTETCVPLPWFRGGGVTNLLWSPDGSKVLATTPSAVFRVWEAQMWTCEAWPTLSGRCQTGCWSPDGNRLLFTVLGEALIYSLSFPERCGTGKGHVGGAKSATIVADLSETTIQTPDGEERLGGEAHSMVWDPSGERLAVLMKGNPQVQDGNPVILLFRTRNSPVFELLPCGIIQGEPGAQAQLITFHPSFNKGALLSVCWSTGRITHIPLYFVNAQFPRFSPVLGRAQEPPAGGGGSIHEVPLFTETSPTSAPWDPLPGQSSAQPHSPHSHL
For B5, the binding (FLAG-tagged TMEM18) was “binds”.

B6: YC-AAAS (protein, UniProt P58742 1-546)
chain: MCSLGLFPPPPPRGQVTLYEHNNELVTGNSYESPPPDFRGQWINLPVLHLTKDPLKAPGRLDHGTRTAFIHHREQVWKRCINVWHDVGLFGVLNEIANSEEEVFEWVKTACSWALALCGRASSLHGSLFPHLSLRSEDLIAEFAQVTNWSSCCLRVFAWHPHTNKFAVALLDDSIRVYNANSTIVPSLKHRLQRNVAALAWKPLSASVLAVACQSCILIWTLDPTSLSTRPSSGCAQVLSHPGHTPVTSLAWAPNGGWLLSASPVDAVILVWDVSTETCVPLPWFRGGGVTNLLWSPDGSKVLATTPSAVFRVWEAQMWTCEAWPTLSGRCQTGCWSPDGNRLLFTVLGEALIYSLSFPERCGTGKGHVGGAKSATIVADLSETTIQTPDGEERLGGEAHSMVWDPSGERLAVLMKGNPQVQDGNPVILLFRTRNSPVFELLPCGIIQGEPGAQAQLITFHPSFNKGALLSVCWSTGRITHIPLYFVNAQFPRFSPVLGRAQEPPAGGGGSIHEVPLFTETSPTSAPWDPLPGQSSAQPHSPHSHL
In the case of B6, the binding (YN-FLAG-NDC1) is reported as “binds”.

Reference: paper doi:10.1101/122853
